This is an account of results in article PMC8563733, “The transcriptional corepressor CtBP2 serves as a metabolite sensor orchestrating hepatic glucose and lipid homeostasis” (Nature Communications, 2021).

Chains of the proteins cited; added tags and fusions are not shown. Lines headed by an entry give the natural chain unless they say otherwise; changes in a name come on top. A line that says so, or that is headed by a name, gives the form on record, which may keep a tag or linker.
UniProt Q9R1E0: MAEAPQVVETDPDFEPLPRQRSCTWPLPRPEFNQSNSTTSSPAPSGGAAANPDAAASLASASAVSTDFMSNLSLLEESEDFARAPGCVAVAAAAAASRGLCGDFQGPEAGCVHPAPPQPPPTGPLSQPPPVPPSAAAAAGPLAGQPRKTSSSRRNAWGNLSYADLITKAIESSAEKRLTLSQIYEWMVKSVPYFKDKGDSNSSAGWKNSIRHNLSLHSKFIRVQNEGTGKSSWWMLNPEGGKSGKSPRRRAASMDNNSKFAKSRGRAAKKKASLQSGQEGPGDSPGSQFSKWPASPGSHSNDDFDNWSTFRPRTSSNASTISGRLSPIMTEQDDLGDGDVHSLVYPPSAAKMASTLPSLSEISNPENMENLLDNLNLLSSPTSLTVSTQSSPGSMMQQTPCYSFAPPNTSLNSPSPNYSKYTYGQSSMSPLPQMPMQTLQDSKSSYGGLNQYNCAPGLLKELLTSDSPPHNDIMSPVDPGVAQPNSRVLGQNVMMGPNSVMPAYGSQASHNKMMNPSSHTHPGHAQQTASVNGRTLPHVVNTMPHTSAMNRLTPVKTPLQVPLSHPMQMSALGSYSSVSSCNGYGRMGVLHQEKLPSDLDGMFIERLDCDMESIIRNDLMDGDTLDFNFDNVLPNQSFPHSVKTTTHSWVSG
purified recombinant △DB FoxO1 mutant (Q9R1E0, form named): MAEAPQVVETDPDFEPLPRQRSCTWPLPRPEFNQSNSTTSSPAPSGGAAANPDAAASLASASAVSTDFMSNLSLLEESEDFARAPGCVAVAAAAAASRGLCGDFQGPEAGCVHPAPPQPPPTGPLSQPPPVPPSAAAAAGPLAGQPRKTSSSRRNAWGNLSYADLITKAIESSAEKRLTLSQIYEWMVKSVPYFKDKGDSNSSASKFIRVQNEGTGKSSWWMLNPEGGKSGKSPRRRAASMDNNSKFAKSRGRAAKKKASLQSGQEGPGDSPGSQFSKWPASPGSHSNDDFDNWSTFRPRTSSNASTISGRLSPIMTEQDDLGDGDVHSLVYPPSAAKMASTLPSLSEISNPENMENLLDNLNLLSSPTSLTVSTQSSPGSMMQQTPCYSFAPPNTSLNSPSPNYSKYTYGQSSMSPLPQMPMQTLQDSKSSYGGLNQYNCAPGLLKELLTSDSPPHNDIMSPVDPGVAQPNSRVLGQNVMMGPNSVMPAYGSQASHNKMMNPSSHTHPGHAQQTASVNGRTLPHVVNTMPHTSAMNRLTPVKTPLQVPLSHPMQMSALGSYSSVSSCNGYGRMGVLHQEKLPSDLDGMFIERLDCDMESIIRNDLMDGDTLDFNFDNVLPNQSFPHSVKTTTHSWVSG
UniProt Q12778: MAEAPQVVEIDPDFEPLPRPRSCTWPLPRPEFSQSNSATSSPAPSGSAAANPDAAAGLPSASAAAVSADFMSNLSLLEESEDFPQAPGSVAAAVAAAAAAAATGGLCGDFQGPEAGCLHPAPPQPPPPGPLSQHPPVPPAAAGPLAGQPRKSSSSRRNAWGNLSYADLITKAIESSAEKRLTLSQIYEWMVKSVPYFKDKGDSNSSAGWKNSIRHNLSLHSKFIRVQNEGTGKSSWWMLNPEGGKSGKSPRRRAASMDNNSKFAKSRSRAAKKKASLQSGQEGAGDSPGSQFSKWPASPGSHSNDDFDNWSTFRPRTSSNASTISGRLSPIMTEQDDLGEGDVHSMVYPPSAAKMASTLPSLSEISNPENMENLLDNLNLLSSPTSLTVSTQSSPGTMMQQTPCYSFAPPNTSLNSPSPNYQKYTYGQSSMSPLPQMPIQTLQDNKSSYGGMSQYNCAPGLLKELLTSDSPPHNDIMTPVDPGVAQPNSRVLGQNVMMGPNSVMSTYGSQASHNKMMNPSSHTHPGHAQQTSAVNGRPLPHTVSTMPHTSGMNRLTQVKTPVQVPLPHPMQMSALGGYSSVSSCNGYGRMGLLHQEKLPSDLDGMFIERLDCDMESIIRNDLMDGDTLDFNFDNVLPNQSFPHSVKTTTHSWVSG
UniProt P56546: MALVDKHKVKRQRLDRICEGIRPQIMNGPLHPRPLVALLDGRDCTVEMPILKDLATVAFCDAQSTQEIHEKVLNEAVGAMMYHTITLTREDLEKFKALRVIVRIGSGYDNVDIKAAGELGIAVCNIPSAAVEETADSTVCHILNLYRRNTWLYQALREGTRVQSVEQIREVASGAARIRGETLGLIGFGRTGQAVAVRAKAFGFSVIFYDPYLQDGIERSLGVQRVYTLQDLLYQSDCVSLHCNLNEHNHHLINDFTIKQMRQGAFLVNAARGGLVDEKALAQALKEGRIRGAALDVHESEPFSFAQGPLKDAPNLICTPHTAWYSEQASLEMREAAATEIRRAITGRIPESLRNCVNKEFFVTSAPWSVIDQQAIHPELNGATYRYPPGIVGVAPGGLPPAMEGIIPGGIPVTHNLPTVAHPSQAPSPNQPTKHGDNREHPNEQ
UniProt P35222: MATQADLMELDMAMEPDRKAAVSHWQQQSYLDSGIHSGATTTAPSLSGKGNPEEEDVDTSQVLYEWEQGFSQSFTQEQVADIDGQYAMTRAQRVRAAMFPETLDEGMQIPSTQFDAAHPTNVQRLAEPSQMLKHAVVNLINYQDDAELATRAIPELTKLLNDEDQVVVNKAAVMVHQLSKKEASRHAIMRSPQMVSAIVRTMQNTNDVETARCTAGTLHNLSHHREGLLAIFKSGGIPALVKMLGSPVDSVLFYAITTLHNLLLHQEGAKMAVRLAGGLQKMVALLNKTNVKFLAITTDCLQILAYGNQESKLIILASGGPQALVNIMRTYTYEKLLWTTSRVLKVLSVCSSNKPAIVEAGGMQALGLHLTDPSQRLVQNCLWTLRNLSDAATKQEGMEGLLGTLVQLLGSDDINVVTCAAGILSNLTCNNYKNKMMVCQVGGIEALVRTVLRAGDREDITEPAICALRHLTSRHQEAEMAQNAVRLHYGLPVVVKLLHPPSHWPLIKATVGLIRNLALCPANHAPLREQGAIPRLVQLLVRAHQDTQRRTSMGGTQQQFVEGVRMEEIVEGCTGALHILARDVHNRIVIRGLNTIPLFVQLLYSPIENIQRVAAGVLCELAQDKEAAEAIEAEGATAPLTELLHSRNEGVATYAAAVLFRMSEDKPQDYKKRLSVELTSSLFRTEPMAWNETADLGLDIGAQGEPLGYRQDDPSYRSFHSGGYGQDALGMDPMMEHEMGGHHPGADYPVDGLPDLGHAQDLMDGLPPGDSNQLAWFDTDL

These are yes or no findings as the source states them, for the method shown. For some assays here: In cells and extracts the contact can be indirect. Some binding calls cover weakened binding; strength is not graded here.

The target in assay [1] is NR5A2(LRH-1), exogenously expressed (UniProt P45448). Kind of assay: co-IP; HEK293 cells expressing CtBP2 and NR5A2(LRH-1), wild type or mutated in the PSDL motif; which protein was precipitated not given.
The target is the same in assay [2]. Kind of assay: co-IP; exogenous expression of CtBP2, NR5A2(LRH-1) and SREBP1; cells and precipitated protein not stated (Supplementary Fig. 4d).
Assay [3] addresses FLAG wild-type FoxO1 (UniProt Q9R1E0). The assay can be described thus: co-IP; HEK293 cells transfected with FLAG-FoxO1 (wild type or mutated) and CtBP1 or CtBP2; FLAG M2 magnetic beads, buffer A with 0.5% NP40, 4 h at 4 °C, eluted with 3x FLAG peptide; in some panels NADH, oleoyl-CoA, acetyl-CoA or sodium oleate added to the lysates (8 h at 4 °C), or cells treated with lactate/pyruvate, koningic acid or palmitate-BSA with ACSL1.

Assay [4] has as its target FoxO1 with large BiT fused to its C-terminal (UniProt Q9R1E0). Kind of assay: split reporter; NanoLuciferase Binary Technology in living HEK293 cells stably expressing CtBP2-small BiT and FoxO1-large BiT; stimulated with 50 mM lactate, followed over 30 min.
The target in assay [5] is Forkhead box O1 (FoxO1), endogenous, mouse (mouse (endogenous in primary hepatocytes and liver)) (UniProt Q9R1E0). The assay can be described thus: co-IP; liver of diet-induced obese mice after adenoviral expression of CtBP2 (wild type or A201H); CtBP2/FoxO1 complex.
In assay [6] the target is T1, zinc-finger protein FOG family member 1 (ZFPM1), endogenous, mouse liver (mouse (endogenous in liver)) (UniProt O35615).
T1 sequence: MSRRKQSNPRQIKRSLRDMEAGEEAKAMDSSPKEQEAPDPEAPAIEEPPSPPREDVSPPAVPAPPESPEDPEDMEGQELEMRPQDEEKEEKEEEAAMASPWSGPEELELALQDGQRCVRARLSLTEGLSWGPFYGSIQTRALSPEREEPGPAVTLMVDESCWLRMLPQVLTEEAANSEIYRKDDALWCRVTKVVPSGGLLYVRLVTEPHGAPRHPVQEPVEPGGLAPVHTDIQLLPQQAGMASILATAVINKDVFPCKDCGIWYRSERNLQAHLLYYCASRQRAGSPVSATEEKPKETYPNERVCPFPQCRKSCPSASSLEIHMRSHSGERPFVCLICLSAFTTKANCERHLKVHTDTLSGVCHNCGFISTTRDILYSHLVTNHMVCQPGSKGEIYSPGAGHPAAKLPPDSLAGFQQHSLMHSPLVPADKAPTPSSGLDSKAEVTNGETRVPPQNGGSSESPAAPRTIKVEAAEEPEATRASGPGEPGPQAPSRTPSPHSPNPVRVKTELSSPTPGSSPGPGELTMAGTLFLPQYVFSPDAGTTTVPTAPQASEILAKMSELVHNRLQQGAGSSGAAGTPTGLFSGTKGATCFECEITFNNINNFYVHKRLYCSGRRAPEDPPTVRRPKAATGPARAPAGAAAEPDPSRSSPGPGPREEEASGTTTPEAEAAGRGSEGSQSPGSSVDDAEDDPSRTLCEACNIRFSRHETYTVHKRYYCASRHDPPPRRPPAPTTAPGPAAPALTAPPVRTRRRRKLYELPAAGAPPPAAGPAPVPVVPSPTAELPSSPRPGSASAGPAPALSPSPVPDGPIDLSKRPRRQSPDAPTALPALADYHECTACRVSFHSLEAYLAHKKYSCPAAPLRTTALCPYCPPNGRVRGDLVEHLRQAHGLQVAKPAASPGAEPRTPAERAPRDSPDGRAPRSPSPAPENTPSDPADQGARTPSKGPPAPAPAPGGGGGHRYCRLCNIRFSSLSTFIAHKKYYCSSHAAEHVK
The assay can be described thus: co-IP; endogenous proteins of mouse liver homogenates; antibodies cross-linked to Protein G dynabeads, buffer A with 0.5% NP40, 4 h at 4 °C; normal mice (fasted/fed, glucagon, glucocorticoid, insulin, glucose, NR5A2 knock-down, oleoyl-CoA added to lysates), genetically obese and diet-induced obese mice.

Assay [7] has as its target Forkhead box O1 (FoxO1), endogenous, mouse (mouse (endogenous in primary hepatocytes and liver)) (UniProt Q9R1E0). The description is as above.
Assay [8] addresses differentially tagged CtBP2 (FLAG-CtBP2 and CtBP2-HA), ALA201HIS mutant (UniProt P56545). Kind of assay: co-IP; differentially tagged CtBP2 (FLAG-CtBP2 and CtBP2-HA) co-expressed in cells; dimer formation.
The target in assay [9] is FoxO1, endogenous, human liver (human (endogenous in liver)) (UniProt Q12778). The assay can be described thus: co-IP; endogenous proteins of human liver autopsy specimens, lean and obese subjects.
The target in assay [10] is purified recombinant △DB FoxO1 mutant (UniProt Q9R1E0). Kind of assay: pull-down; purified recombinant proteins incubated with different concentrations of metabolites (NADH 0 or 10 μM; oleoyl-CoA or acetyl-CoA 0, 15, 50 μM) for 6–8 h at room temperature, read by blot; how the complex was captured is not stated; both purified.
For assay [11], the target named is FLAG wild-type FoxO1 (UniProt Q9R1E0). The assay is described as above.

As for “C-terminal binding protein 2 (CtBP2) (from UniProt P56545 1-445)”, the binding entry in assay [1], in [2] and in assay [3] was “binds” in each case.
As to “CtBP2 with small BiT fused to its C-terminal (from UniProt P56545 1-445)”, the binding result in assay [4] was “binds”.
In the case of “CtBP2 exogenously expressed in the liver of diet-induced obese mice by adenoviral transduction (AdCtBP2) (from UniProt P56545 1-445)”, in assay [5], the binding result is recorded as “binds”.
Regarding “CtBP2, endogenous, mouse liver (from UniProt P56546 1-445)”, the binding result in assay [6] and in [7] was “binds” in each case.
Turning to “differentially tagged CtBP2 (FLAG-CtBP2 and CtBP2-HA), ALA201HIS mutant (from UniProt P56545 1-445)”, the binding result in assay [8] was “binds”.
Turning to β-catenin (from UniProt P35222 1-781), in [3], the binding entry is on record as “binds”.
Take “CtBP2, endogenous, human liver (from UniProt P56545 1-445)”: the binding result in assay [9] is on record as “binds”.
As for “wild-type CtBP2-HA, purified recombinant (from UniProt P56545 1-445)”, the binding result in [10] and in [11] was “binds” in each case.
Take “ALA201HIS mutant CtBP2 expressed in the liver of diet-induced obese mice by adenovirus (from UniProt P56545 1-445)”: the binding result in [5] is given as “binds”.
For “ALA201HIS mutant CtBP2 (from UniProt P56545 1-445)”, in [3], the binding entry was “binds”.
